From PubChem BioAssay AID504444 (National Center for Advancing Translational Sciences (NCATS), 2011)
About 7,500 (2.1%) of roughly 360,000 compounds were called active. The inconclusive results got no clear call from the source; some entries with a clear call stand among them for comparison. Calls come from the whole dose curve; as a rule, active = well fitted inhibition curve with a large enough effect; inconclusive = small, poorly fitted or top-dose-only effect, or effect the other way; inactive = flat fitted curve, though single readings scatter. Where the call is inconclusive, the potency comes from a doubtful curve fit.

Assay: Nrf2 qHTS screen for inhibitors; note: nearly all actives have a fitted effect of over 60% in size
Conditions: A549 ARE-Fluc reporter, luciferase luminescence, 18-24 h; activity change, negative = inhibition: at 46 µM (top of the series)
Outline: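 A549 ARE_Fluc cells (5000/well, 5% FBS OPTI-MEM) pre-incubated 2 h, then treated with compounds 18-24 h at 37C/5% CO2 in concentration-response. CellTiter-Fluor viability read first; BugLite luciferase luminescence after 15 min at room temperature gives Nrf2 activity.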
% is set by controls: 0 for no effect and ±100 for the full control effect; potency is the fitted concentration of half-maximal effect.

SMILES | Potency | activity change, negative = inhibition
Cc1cc2nc(Sc3c([N+](=O)[O-])nc(C)n3Cc3ccccc3)[nH]c2cc1C | inconclusive: 23.1 µM [falling, partial curve] | 
COc1ccc(-c2coc3cc(OC)ccc3c2=O)cc1 | inconclusive: 6.51 µM [activator, full curve] | 
O=C(CCc1ccccc1)NNC(=O)Nc1cccc(Cl)c1 |  | inactive: -13.6%
COc1ccccc1CNC(=O)Cn1c(-c2cccs2)cc2cc(F)ccc21 |  | inactive: 15.8%
CCn1c(C)cc(C(=O)COC(=O)c2cccnc2SC)c1C | inconclusive: 18.4 µM [activator, partial curve] | 
O=S(=O)(Nc1nc2cc3c(cc2nc1Cl)OCCO3)c1ccccc1 | inconclusive: 5.17 µM [falling, full curve, poor fit] | 
Cn1c(NC(=O)CCc2ccccc2)cc(=O)n(C)c1=O | inconclusive: 3.66 µM [activator, partial curve] | 
COc1ccc(-c2ccc(S(=O)(=O)n3nc(OC(=O)c4cccs4)cc3N)cc2)cc1 |  | inactive: 8.82%
Cn1c(-c2ccc(-c3ccccc3)cc2)c[nH]c1=S | inconclusive: 29.1 µM [falling, single point] | 
O=C(COC(=O)COc1cccc(Br)c1)NCc1ccc2c(c1)OCO2 |  | inactive: 20.7%
Cn1c(=O)n(Cc2ccccc2)c(=O)c2c1nc1n2CCCN1CCc1ccccc1 | active: 29.1 µM | 
Cc1cc(C)nc(SCC(=O)Nc2ncc(Cc3cccc(Cl)c3)s2)n1 | inconclusive: 18.4 µM [falling, single point] | 
Cc1ccc(NS(=O)(=O)c2cc3c(cc2Cl)NC(=O)C3)cc1C |  | inactive: 14.3%
CCOc1ccccc1NC(=O)Cn1nc2c3cc(F)ccc3n(Cc3cccc(C)c3)cc-2c1=O | inconclusive: 29.1 µM [activator, single point] | 
CCN(CC)c1ccc(C(=O)NNC(=O)c2cccn2C)cc1 | inconclusive: 16.4 µM [activator, partial curve] | 
COc1ccc(C(CNC(=O)c2cccc(S(=O)(=O)N3CCc4ccccc43)c2)N(C)C)cc1 (centres undefined) |  | inactive: -11.3%
Cc1ccnc(NC(=O)c2cccs2)c1 | inconclusive: 6.51 µM [activator, partial curve] | 
COc1cc(C(C[N+](=O)[O-])c2c(N)n(C)c(=O)n(C)c2=O)ccc1O (centres undefined) | inconclusive: 2.91 µM [falling, full curve, poor fit] | 
O=C1NC(c2ccc(Cl)c([N+](=O)[O-])c2)Nc2ccccc21 (centres undefined) | inconclusive: 20.6 µM [falling, partial curve, poor fit] | 
Cn1c(CCC(=O)Nc2cc(S(C)(=O)=O)ccc2Cl)nc2cc(S(=O)(=O)N3CCOCC3)ccc21 |  | inactive: 8.4%
CC(Nc1nc(-c2ccc3c(c2)NC(=O)CO3)cs1)c1ccccc1 (centres undefined) | inconclusive: 29.1 µM [falling, single point] | 
CCNC(=S)Nc1ccc(Cl)c(C(F)(F)F)c1 | inconclusive: 25.9 µM [falling, partial curve] | 

A few values from the results shown:
Potency with CCN(CC)c1ccc(C(=O)NNC(=O)c2cccn2C)cc1 is entered as inconclusive: 16.4 µM [activator, partial curve]
Potency with Cc1cc(C)nc(SCC(=O)Nc2ncc(Cc3cccc(Cl)c3)s2)n1 is entered as inconclusive: 18.4 µM [falling, single point]

Next part:

SMILES | Potency | activity change, negative = inhibition
CCOC(=O)C1=C(CN2CCN(c3ccccc3F)CC2)NC(=O)NC1c1ccc(OC)cc1 (centres undefined) | active: 18.4 µM | 
Cc1ccc(NC(=O)c2cccc3cccnc23)cc1 | inconclusive: 23.1 µM [activator, partial curve] | 
CC(C)COc1cccc(-c2cc(C(=O)Nc3ccon3)c3ccccc3n2)c1 | inconclusive: 18.4 µM [falling, single point] | 
Cc1cc(N)n(-c2ccccn2)n1 | inconclusive: 29.1 µM [activator, single point] | 
Cc1ccc(CNC(=O)CCc2c(C)nn(-c3ccc(N4CCCC4)nn3)c2C)cc1 | inconclusive: 29.1 µM [activator, single point] | 
Cc1ccc(-c2cc(=O)c3cc(F)ccc3[nH]2)cc1 |  | inactive: 6.07%
COC(=O)c1sc(NC(=O)COc2ccccc2C)nc1C | inconclusive: 5.17 µM [activator, partial curve, poor fit] | 
CN1CCN(C(=O)c2ccc(Oc3ccc([N+](=O)[O-])cc3)cc2)CC1 |  | inactive: -19.5%
C=CCn1cc(C(=O)NCc2ccc(Cl)cc2)c(=O)c2cc(S(=O)(=O)N(CC)CC)ccc21 | inconclusive: 14.6 µM [falling, single point] | 
COc1ccc(C(=O)n2nc(-c3ccco3)nc2N)cc1 | inconclusive: 29.1 µM [falling, single point] | 
O=C(NNC(=O)c1ccccc1F)c1cccs1 | inconclusive: 16.4 µM [activator, partial curve] | 
O=C(Oc1ccccc1N1C(=O)C2CCCCC2C1=O)c1ccc(Cl)cc1 (centres undefined) | active: 4.61 µM | 
O=[N+]([O-])c1ccc(N2CCCC2)nc1N1CCCC1 |  | inactive: -9.42%
COc1ccccc1C(=O)NC(=S)Nc1ccc(NC(=O)c2cccs2)cc1 | inconclusive: 14.6 µM [falling, partial curve] | 
COc1ccc(N2CCN(C(=O)Cc3noc4ccc(C)cc34)CC2)cc1 | inconclusive: 7.31 µM [falling, partial curve, poor fit] | 
COCCN(C(=O)CSc1nn(-c2ccc(F)cc2)c(=S)s1)c1c(N)n(CC(C)C)c(=O)[nH]c1=O | inconclusive: 11.6 µM [falling, partial curve, poor fit] | 
COC(=O)C1=C(C)NC(C)=C(C(=O)O[C@@H]2CCCN(Cc3ccccc3)C2)[C@@H]1c1cccc([N+](=O)[O-])c1 | inconclusive: 18.4 µM [falling, single point] | 
COc1ccc(C(=O)Nn2c(SCC(=O)NC3CCCC3)nc3ccccc3c2=O)cc1 | inconclusive: 0.366 µM [activator, full curve] | 
S=c1[nH]nc(C2CCCCC2)n1/N=C/c1ccc(Br)s1 | inconclusive: 18.4 µM [falling, partial curve, poor fit] | 
O=C(NC1CCCCC1)c1cc(-c2cccs2)on1 | inconclusive: 2.91 µM [activator, single point] | 
O=C(/C=C/c1cccc(F)c1)Nc1cc(S(=O)(=O)N2CCOCC2)ccc1N1CCCC1 |  | inactive: -6.91%
CCc1ccccc1NC(=O)Nc1cc(F)ccc1F | inconclusive: 20.6 µM [falling, single point] | 
